From US20210340205A1 come the findings set out here.

No constants are given. Whether binding was seen depends on the method and setting. For some of these results: Binding seen in cells or lysates may run through a third protein. Some binding calls cover weakened binding; strength is not graded here. Where a sequence is shown, tags or fusion partners need not be part of it.

The target in assay [1] is Human cRET(ECD)-Fc (human). As to the kind of experiment: MSD plate assay, cRET(ECD)-Fc coated, streptavidin sulfo-tag detection.
Assay [2] has as its target Human cRET(ECD)-Fc (human). Kind of assay: MSD plate assay, cRET(ECD)-Fc coated; biotinylated anti-6xHis mAb and streptavidin sulfo-tag.
Assay [3] addresses Human GFRAL(ECD)-Fc (human). Kind of assay: co-expression in HEK293 cells, co-purification on Protein A, SDS-PAGE.

B1: His-GDF15(biotin)/GFRAL(ECD)-His complex (protein)
chain 1: HHHHHHGSGGARNGDHCPLGPGRCCRLHTVRASLEDLGWADWVLSPREVQVTMCIGACPSQFRAANMHAQIKTSLHRLKPDTVPAPCCVPASYNPMVLIQKTDTGVSLQTYDDLLAKDCHCI
chain 2: QTNNCTYLREQCLRDANGCKHAWRVMEDACNDSDPGDPCKMRNSSYCNLSIQYLVESNFQFKECLCTDDFYCTVNKLLGKKCINKSDNVKEDKFKWNLTTRSHHGFKGMWSCLEVAEACVGDVVCNAQLASYLKACSANGNPCDLKQCQAAIRFFYQNIPFNIAQMLAFCDCAQSDIPCQQSKEALHSKTCAVNMVPPPTCLSVIRSCQNDELCRRHYRTFQSKCWQRVTRKCHEDENCISTLSKQDLTCSGSDDCKAAYIDILGTVLQVQCTCRTITQSEESLCKIFQHMLHRKSCFNYPTLSNVKGMALYTRKHANKITLTGFHSPFNGEGSHHHHHH
modifications: biotinylated (site not stated)
For the molecule B1, the binding entry in assay [1] and in assay [2] was “binds” throughout.

B2: His-GDF15(biotin)/GFRAL(D2D3)-App complex (protein)
chain 1: B1 chain 1
chain 2: GFKGMWSCLEVAEACVGDVVCNAQLASYLKACSANGNPCDLKQCQAAIRFFYQNIPFNIAQMLAFCDCAQSDIPCQQSKEALHSKTCAVNMVPPPTCLSVIRSCQNDELCRRHYRTFQSKCWQRVTRKCHEDENCISTLSKQDLTCSGSDDCKAAYIDILGTVLQVQCTCRTITQSEESLCKIFQHMLHRKSCFNYPTLSNVKGMALYTRKGSEFRHDS
modifications: biotinylated (site not stated)
Take B2: the binding result in assay [1] was “binds”.

B3: Human His-GDF15 (ligand)
chain: B1 chain 1
On to B3, for which the binding result in assay [3] is given as “binds”.
